Laboratory results published in PubChem BioAssay AID2685 (National Center for Advancing Translational Sciences (NCATS), 2010).
Some of the results follow. Further columns of the screen follow, without active or inactive calls. Compounds called inactive in the main read-out are mostly missing here. Words in brackets tell the shape of the fitted curve; partial curves, single points and poor fits give uncertain potencies.

Experiment: qHTS Assay for Lipid Storage Modulators in Drosophila S3 Cells;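 as to cell number change: cells counted by Cell Tracker Red CMTPX staining in the red channel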
Conditions: BODIPY lipid droplet fluorescence, 18-24 h; for cell number change: measured here: cell count max response, cells fed with added oleic acid
In short: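 Drosophila S3 cells got compounds at several concentrations plus oleic acid (400 uM solution). Laser-scanning cytometry with 488 nm excitation read lipid droplets at 500-530 nm and cells at 575-640 nm. Percent activity was relative to 20 uM Triacsin C.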

[1] = measured here: cell number channel AC50, cells fed with added oleic acid
[2] = measured here: lipid fluorescence (Fed channel) AC50, cells fed with added oleic acid

| Structure (SMILES) | cell number change [%] | AC50 [1] | AC50 [2] |
| --- | --- | --- | --- |
| CC(=O)c1ccc(N2CCN(S(=O)(=O)c3c(C)[nH]c(=O)[nH]c3=O)CC2)cc1 | -28.1 | 0.291 µM [rising, single point] |  |
| C/C(=N\NC(=O)c1nnn(-c2nonc2N)c1-c1ccc2c(c1)OCO2)c1ccc(F)cc1 | 30.4 | 4.61 µM [rising, full curve, poor fit] |  |
| O=C(CC1C(=O)NCCN1C(=O)Nc1ccccc1)Nc1cc(Cl)cc(Cl)c1 (stereo unspecified) | -47.5 | 25.9 µM [falling, partial curve, poor fit] |  |
| CC1(C)NC(=O)N(CC(O)CN2C(=O)CCC2=O)C1=O (stereo unspecified) | -6.94 |  | 3.26 µM [falling, single point] |
| Cc1cccc(C)c1NC(=O)c1ccc([N+](=O)[O-])s1 | -58.1 | 16.4 µM [falling, partial curve] | 10.3 µM [falling, partial curve] |
| COc1ccc(OCCCC(=O)OCC(=O)Nc2ncc(Cl)cc2Cl)cc1 | -15 |  |  |
| c1ccc(CSc2ncnc3sccc23)cc1 | -17 |  | 0.651 µM [falling, full curve] |
| Cc1ccccc1Cn1nc(C)c(NC(=O)c2noc3c2CCCC3)c1C |  | 0.259 µM [rising, partial curve, poor fit] | 0.0731 µM [rising, full curve, poor fit] |
| CCOC(=O)c1cc(CC)sc1NC(=O)CN1C(=O)C(=O)N(CC(C)C)C1=O | 35 |  |  |
| Cc1ccc(NC(=O)c2sc3nc(C)cc(C)c3c2N)cc1 |  | 6.51 µM [rising, single point] | 6.51 µM [rising, single point] |
| O=C(CSc1nc2ccccc2c(=O)n1CC1CCCO1)Nc1ccccc1 (stereo unspecified) | 16.8 |  | 0.206 µM [rising, single point] |
| O=C(NCCN1CCCC1=O)C1CCC(=O)N(CCc2cccc(F)c2)C1 (stereo unspecified) | 25.2 | 0.651 µM [rising, partial curve, poor fit] |  |
| O=C(Nc1ccc2c(c1)CCC2)c1cc(S(=O)(=O)Nc2ccc(F)cc2)c(Cl)cc1Cl | -1.02 |  | 6.51 µM [rising, single point] |
| CCCn1nnc(NC(=O)COc2ccc(C3CCCCC3)cc2)n1 | -1.29 |  | 25.9 µM [falling, single point] |
| COc1cc2ccc(=O)oc2cc1O | 41.4 | 20.6 µM [rising, single point] | 18.4 µM [rising, single point] |
| Cc1ccc(S(=O)(=O)N2CCCC(C(=O)Nc3ccc(NC(=O)c4ccccn4)cc3)C2)cc1 (stereo unspecified) | -35.8 | 16.4 µM [falling, partial curve] | 23.1 µM [falling, partial curve] |
| COc1ccccc1-n1c(SCC(=O)NC2CC2)nc2ccccc2c1=O | -13 |  | 2.31 µM [falling, full curve] |
| CCOc1cc(C)nc(N2CCN(C3CCCCC3)CC2)n1 | -8.29 |  | 20.6 µM [rising, single point] |

Three entries out of the list, arranged by heavy-atom count, smallest number first:

| Structure (SMILES) | cell number change [%] | AC50 [1] | AC50 [2] |
| --- | --- | --- | --- |
| Cc1cccc(C)c1NC(=O)c1ccc([N+](=O)[O-])s1 | -58.1 | 16.4 µM [falling, partial curve] | 10.3 µM [falling, partial curve] |
| CC1(C)NC(=O)N(CC(O)CN2C(=O)CCC2=O)C1=O (stereo unspecified) | -6.94 |  | 3.26 µM [falling, single point] |
| CC(=O)c1ccc(N2CCN(S(=O)(=O)c3c(C)[nH]c(=O)[nH]c3=O)CC2)cc1 | -28.1 | 0.291 µM [rising, single point] |  |

Continued:

| Structure (SMILES) | cell number change [%] | AC50 [1] | AC50 [2] |
| --- | --- | --- | --- |
| Cc1cc(/C=N\NC(=O)COc2cccc3cccnc23)c(C)n1-c1ccc(Br)cc1 |  |  | 20.6 µM [rising, partial curve] |
| COC(=O)Cc1ccc(N(Cc2ccccc2F)S(=O)(=O)c2ccc(Cl)cc2)cc1 | 18.9 |  | 8.2 µM [rising, partial curve] |
| O=C(Cc1ccccc1)c1nc2ccccc2s1 | 167 | 23.1 µM [rising, single point] | 18.4 µM [falling, single point] |
| COc1cc(/C=C/C(=O)Nc2nnc(C(C)(C)C)s2)cc(OC)c1OC | -32.2 | 0.00461 µM [falling, full curve] | 1.03 µM [rising, partial curve] |
| CCCCn1c(N)c(N(CC(C)C)C(=O)c2ccc(N3C(=O)CCC3=O)cc2)c(=O)[nH]c1=O |  | 0.116 µM [falling, full curve, poor fit] |  |
| O=S(=O)(Nc1nc2ccccc2nc1NCC1CCCO1)c1ccccc1 (stereo unspecified) | 32.3 | 29.1 µM [rising, single point] | 1.16 µM [falling, full curve, poor fit] |
| Cc1ccc(C)c(N2N=C(C(=O)OCc3nnc(-c4cccs4)o3)CCC2=O)c1 | 7.23 |  |  |
| CC1(C)NC(=O)N(CC(=O)OCC(=O)NC(=O)c2ccccc2)C1=O | -30.2 | 9.2 µM [falling, partial curve] | 16.4 µM [falling, partial curve] |
| CCOC(=O)CC(=O)CSc1nc2c(sc(=S)n2-c2ccc(OCC)cc2)c(=O)[nH]1 | -16.5 | 3.66 µM [falling, single point] | 4.11 µM [falling, single point] |
| COc1cc(/C=C/C(=O)OCC(=O)NC(=O)NC2CCCCC2)ccc1OC(F)F | 3.65 |  | 2.51 µM [falling, partial curve, poor fit] |
| CCOC(=O)c1nnc2cc(-c3ccc(Br)cc3)nn2c1C | 9.53 |  | 0.082 µM [rising, full curve, poor fit] |
| COc1ccccc1C(=O)Nc1c(C(=O)N2CCN(C)CC2)oc2ccccc12 |  |  | 18.4 µM [rising, single point] |
| O=C(O)C1CC(=O)N(Cc2ccc(F)cc2)C1 (stereo unspecified) | 19.7 |  | 6.51 µM [falling, single point] |
| Cc1csc2nc(CNS(=O)(=O)N(C)C)cn12 |  |  | 0.103 µM [rising, full curve, poor fit] |
| CC(C)(C)OC(=O)NCCCC[C@H](NC(=O)c1[nH]cnc1C(=O)Nc1ccccc1)C(=O)OC(C)(C)C | -7.59 |  |  |
| COc1ccc(C(=O)NCC2CCCO2)cc1 (stereo unspecified) | 25.9 |  | 0.461 µM [rising, full curve, poor fit] |
| Cc1ccc(NC(=O)CSCc2ccc(F)cc2)cc1 | -12.3 | 0.13 µM [rising, full curve, poor fit] |  |
| CN(C)c1ccc(C2N(C)C(=O)c3ccccc3N2C)cc1 (stereo unspecified) |  |  | 29.1 µM [falling, single point] |
